Experimental data as given in publication PMC7555452.

Protein sequences, listed by entry. Tags and fused reporters are not part of them. Lines headed by an entry give the natural chain unless they say otherwise; changes in a name come on top.
UniProt P0A850: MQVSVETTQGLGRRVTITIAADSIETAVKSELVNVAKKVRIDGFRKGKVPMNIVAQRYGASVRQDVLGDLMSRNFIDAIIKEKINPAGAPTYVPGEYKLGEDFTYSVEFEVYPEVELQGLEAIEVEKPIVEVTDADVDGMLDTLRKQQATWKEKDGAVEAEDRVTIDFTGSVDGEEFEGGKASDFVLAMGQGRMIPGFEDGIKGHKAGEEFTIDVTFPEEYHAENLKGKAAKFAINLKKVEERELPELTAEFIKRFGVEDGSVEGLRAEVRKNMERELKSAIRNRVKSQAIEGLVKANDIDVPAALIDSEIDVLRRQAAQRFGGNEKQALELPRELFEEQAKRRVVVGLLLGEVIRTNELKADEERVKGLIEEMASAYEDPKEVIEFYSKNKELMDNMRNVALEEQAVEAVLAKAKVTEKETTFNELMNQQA

Target: His-tag-Trigger factor (UniProt P0A850)
Experiment: EMSA
Conditions: tag-only control; m6A at position 9; 10 mM Tris-HCl pH 8.0, 150 mM NaCl, 1.0 mM EDTA, 10% glycerol; 5.0 pmol RNA in 20 uL, on ice 30 min; 6% native PAGE, 0.25x TBE, 4 °C; recombinant protein; protein details: His; label: 5'-fluorescein

GAAUCCGAACUAGUUCU [SOS3 RNA m6A]: no binding.

The exact form of at least one protein or probe is not confirmed. A negative result means that nothing was seen under these conditions. At least one verdict was read from the data and is not stated in words by the source.
